Assay results: article PMC8491023
Results are given in words; binding and its absence hold for the method and conditions named. In cells and extracts the contact can be indirect. Here binding means that the protein was enriched with, or labelled near, the bait; the list need not be complete. For some of these results: No binding means not detected with the bait. Sequences can lack the tags named with a protein.

How the values were obtained:
[1] = biological target: T1, EDS1-ZZ-TEV-FLAG (Arabidopsis thaliana) (UniProt Q9SU72); experiment: proximity labelling; TurboID-based proximity labelling in N. benthamiana; EDS1-ZZ-TEV-FLAG and PAD4-ZZ-TEV-FLAG co-expressed with ADR1-L1-HA-TurboID, without or with RBA1 (or NADase-dead RBA1 E86A) pre-treatment; IP with anti-FLAG beads, biotinylated proteins detected with Streptavidin-HRP
T1 sequence: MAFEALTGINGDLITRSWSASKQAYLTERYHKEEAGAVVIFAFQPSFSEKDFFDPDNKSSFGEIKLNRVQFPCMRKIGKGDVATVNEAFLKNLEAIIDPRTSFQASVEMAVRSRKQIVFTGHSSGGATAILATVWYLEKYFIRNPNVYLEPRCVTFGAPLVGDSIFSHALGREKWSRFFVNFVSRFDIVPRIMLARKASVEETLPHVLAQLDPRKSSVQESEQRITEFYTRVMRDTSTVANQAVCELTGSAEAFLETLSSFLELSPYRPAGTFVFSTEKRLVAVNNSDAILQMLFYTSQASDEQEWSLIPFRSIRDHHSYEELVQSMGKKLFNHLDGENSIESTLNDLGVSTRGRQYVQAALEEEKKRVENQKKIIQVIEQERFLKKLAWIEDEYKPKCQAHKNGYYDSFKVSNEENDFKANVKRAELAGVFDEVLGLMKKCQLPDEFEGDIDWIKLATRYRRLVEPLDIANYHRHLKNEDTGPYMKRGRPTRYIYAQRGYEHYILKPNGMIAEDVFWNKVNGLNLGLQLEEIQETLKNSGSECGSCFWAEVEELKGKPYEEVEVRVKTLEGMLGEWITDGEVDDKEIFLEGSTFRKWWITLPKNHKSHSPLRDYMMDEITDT

[2] = biological target: T2, PAD4-ZZ-TEV-FLAG (Arabidopsis thaliana) (UniProt Q9S745); experiment: as above
T2 sequence: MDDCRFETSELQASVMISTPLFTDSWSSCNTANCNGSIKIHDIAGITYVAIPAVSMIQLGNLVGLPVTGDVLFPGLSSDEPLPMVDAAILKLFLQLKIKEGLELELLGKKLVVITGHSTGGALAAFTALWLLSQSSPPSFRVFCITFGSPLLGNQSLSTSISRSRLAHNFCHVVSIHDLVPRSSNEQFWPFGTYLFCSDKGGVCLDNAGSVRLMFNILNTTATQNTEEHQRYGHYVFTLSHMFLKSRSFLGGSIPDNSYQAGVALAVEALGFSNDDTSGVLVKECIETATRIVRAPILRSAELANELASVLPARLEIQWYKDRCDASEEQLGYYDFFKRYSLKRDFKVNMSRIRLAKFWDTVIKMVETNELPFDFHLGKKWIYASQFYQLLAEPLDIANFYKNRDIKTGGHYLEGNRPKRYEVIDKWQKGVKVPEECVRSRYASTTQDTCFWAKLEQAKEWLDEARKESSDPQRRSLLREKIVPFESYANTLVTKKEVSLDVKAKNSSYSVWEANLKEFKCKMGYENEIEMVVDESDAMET

[3] = biological target: T1, EDS1-ZZ-TEV-FLAG (Arabidopsis thaliana); experiment: proximity labelling; TurboID-based proximity labelling in N. benthamiana; EDS1-ZZ-TEV-FLAG and SAG101-3FLAG expressed with ADR1-L1-HA-TurboID (Supplemental Figure S5)
[4] = biological target: T3, SAG101-3FLAG (Arabidopsis thaliana) (UniProt Q4F883); experiment: as above
T3 sequence: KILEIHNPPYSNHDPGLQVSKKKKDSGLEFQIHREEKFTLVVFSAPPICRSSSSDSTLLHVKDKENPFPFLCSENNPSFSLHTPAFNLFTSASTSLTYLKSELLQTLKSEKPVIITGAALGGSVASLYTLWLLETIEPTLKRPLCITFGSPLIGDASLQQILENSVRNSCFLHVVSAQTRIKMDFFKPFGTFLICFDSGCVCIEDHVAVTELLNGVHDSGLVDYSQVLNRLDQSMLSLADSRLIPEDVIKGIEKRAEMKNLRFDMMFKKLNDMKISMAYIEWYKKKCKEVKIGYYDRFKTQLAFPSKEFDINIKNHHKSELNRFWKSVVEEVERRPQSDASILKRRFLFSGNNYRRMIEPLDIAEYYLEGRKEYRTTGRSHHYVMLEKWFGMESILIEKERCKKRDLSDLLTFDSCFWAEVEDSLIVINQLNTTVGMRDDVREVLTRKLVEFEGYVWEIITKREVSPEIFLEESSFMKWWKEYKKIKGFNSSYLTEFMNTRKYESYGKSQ

binding [1]: binds
binding [2]: binds
binding [3]: binds
binding [4]: no binding
Substance: ADR1-L1-HA-TurboID (Arabidopsis thaliana) (receptor)
